Chains of the proteins cited; added tags and fusions are not shown. Lines headed by an entry give the natural chain unless they say otherwise; changes in a name come on top.
UniProt P18054: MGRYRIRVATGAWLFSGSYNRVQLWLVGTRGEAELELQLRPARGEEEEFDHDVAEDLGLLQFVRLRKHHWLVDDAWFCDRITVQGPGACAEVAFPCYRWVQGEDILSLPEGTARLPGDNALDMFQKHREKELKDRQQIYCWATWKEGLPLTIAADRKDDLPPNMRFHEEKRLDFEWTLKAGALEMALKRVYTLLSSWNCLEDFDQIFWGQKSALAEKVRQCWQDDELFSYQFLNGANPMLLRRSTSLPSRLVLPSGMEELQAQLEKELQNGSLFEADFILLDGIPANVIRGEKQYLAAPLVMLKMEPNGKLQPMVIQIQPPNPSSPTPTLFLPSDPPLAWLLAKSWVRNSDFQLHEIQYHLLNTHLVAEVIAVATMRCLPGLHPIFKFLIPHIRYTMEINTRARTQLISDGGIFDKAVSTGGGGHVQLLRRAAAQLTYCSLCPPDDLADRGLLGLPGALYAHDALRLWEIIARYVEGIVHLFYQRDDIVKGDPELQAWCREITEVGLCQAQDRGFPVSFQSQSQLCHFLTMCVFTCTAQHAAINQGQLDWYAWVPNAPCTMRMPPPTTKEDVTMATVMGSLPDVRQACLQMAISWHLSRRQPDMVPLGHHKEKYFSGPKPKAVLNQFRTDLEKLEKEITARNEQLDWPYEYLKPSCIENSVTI

Several values for one entry are separate records, joined by “and”; a condition that tells them apart may be missing. Identical values can stand only once. Screen size: about 580,000 compounds; about 6,100 (1.1%) were called active. Inconclusive means that the source gave no clear call. Such entries were picked first, then a sample of the others. The call rests on the fitted dose curve; in most records, active means well fitted inhibition curve with a large enough effect; inconclusive means small, poorly fitted or top-dose-only effect, or another doubt; inactive means no such curve, though single readings can be large or run the other way. A potency beside an inconclusive call is a rough fit, not a confirmed value.
The compounds below were run against Polyunsaturated fatty acid lipoxygenase ALOX12 (Homo sapiens) (UniProt P18054) (assay: Primary qHTS assay for inhibitors of human arachidonate 12S-lipoxygenase (ALOX12): Round 2). Conditions: purified 12hLO, xylenol orange hydroperoxide absorbance; activity change, negative = inhibition: at 108 µM (top of the series) unless noted.
In short: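 Purified human 12hLO (150 nM final) in 25 mM Hepes, 0.01% Triton X-100, pH 7.0 was preincubated 15 min at room temperature with compound. Then 40 uM arachidonic acid was added, 30 min. Hydroperoxide was read by Fe-XO absorbance ratio 573/405 nm.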
For `Cc1cc2oc(C(=O)Nc3ccc(S(=O)(=O)Nc4nccs4)cc3)cc(=O)c2cc1Cl`, the Potency was “inactive”. In the case of `CC1(COc2cccnc2)COc2ccc(C(=O)NCc3ccc(F)cc3)cc2N1` (stereo not drawn), the Potency is reported as inconclusive: 28.2 µM [inhibitor, full curve]. For `COc1ccc(-c2ncccc2O)cc1`, the Potency was “inactive”. In the case of `COc1ccccc1NC(=O)CSc1nc2c(sc3ccccc32)c(=O)n1CCN(C)C`, the Potency is reported as “inactive and inconclusive: 44.7 µM [inhibitor, partial curve, poor fit]”. For `O=C(Nc1ccccc1F)Nc1cccc2ccc(O)cc12`, the Potency was inconclusive: 100 µM [inhibitor, partial curve, poor fit]. In the case of `CCCNC(=O)CNC(=O)c1cc2ccc(OC)cc2nc1C`, the Potency is reported as inconclusive: 141 µM [inhibitor, single point]. In the case of `COc1cccc(/C=C(/C#N)c2ccc(F)cc2)c1OCc1cccc(C(=O)O)c1`, the Potency is reported as inconclusive: 70.8 µM [inhibitor, partial curve, poor fit]. In the case of `O=C(CCn1nc(-c2ccc(Cl)cc2)c2ccccc2c1=O)Nc1ccc(Cl)cc1`, the Potency is reported as “inactive”. For `CN(C(=O)CSc1nncn1C)C1CCCN(Cc2ccccc2F)C1` (stereo not drawn), the Potency was inconclusive: 50.1 µM [inhibitor, partial curve, poor fit]. With `COCCNC(=S)N/N=C/c1ccc2c(c1)OCCO2` the Potency was inconclusive: 56.2 µM [inhibitor, single point]. For `CCOC(=O)[C@H]1[C@H]2COc3cc(OC)ccc3[C@@H]2N2C(=O)CN(CCc3c[nH]c4ccccc34)C(=O)[C@@]12C`, the Potency was inconclusive: 100 µM [inhibitor, single point]. For `COc1ccc(C2=NOC(Cn3c(=O)c4c(ncn4C)n(C)c3=O)C2)c(OC)c1` (stereo not drawn), the Potency was inconclusive: 31.6 µM [inhibitor, single point]. In the case of `CCC(C(=O)NC1CCCCC1)n1c(SCc2ccccc2F)nc2ccncc21` (stereo not drawn), the Potency is reported as inconclusive: 141 µM [inhibitor, single point]. With `CC(C)c1nc(=S)c2ccccc2[nH]1` the Potency was inconclusive: 0.447 µM [inhibitor, full curve, poor fit]. `CCN1CCN(C(=O)/C=C\C(=O)O)CC1` was tested, and the Potency was inconclusive: 39.8 µM [inhibitor, partial curve, poor fit]. For `CSc1ncnc2c1ncn2CCCNCC(c1ccccc1)c1ccccc1`, the Potency was inconclusive: 141 µM [inhibitor, single point]. In the case of `O=S1(=O)c2ccc(Br)cc2OCCC2CCCCN21` (stereo not drawn), the Potency is reported as inconclusive: 126 µM [inhibitor, single point]. For `CCOc1cc2cc(C(=O)c3cc(C)ccc3O)cnc2cc1OC`, the Potency was inconclusive: 44.7 µM [inhibitor, partial curve, poor fit]. For `O=C(O)c1cccc(NC(=S)NC(NC(=O)c2cccc([N+](=O)[O-])c2)C(Cl)(Cl)Cl)c1` (stereo not drawn), the Potency was inconclusive: 44.7 µM [inhibitor, partial curve, poor fit]. For `N#Cc1ccc(CSCc2nc(N)nc(Nc3ccccc3)n2)cc1`, the Potency was inconclusive: 63.1 µM [inhibitor, partial curve, poor fit]. In the case of `COCCCn1c(C)nnc1SCC(=O)Nc1cccc(C)c1`, the Potency is reported as inconclusive: 31.6 µM [inhibitor, single point]. For `CCOC(=O)c1ccc(NC(=O)CSc2nnc(CCc3ccc(C)o3)n2-c2ccccc2)cc1`, the Potency was “inactive”. For `Cc1ccccc1Cn1c(CN2CCc3ccccc3C2)nc2c1c(=O)n(C)c(=O)n2C`, the Potency was inconclusive: 5.01 µM [inhibitor, full curve, poor fit]. With `c1cncc(-c2cncnc2NCc2cccs2)c1` the Potency was active: 7.94 µM. With `Nn1c(SCC(=O)Nc2ccc(F)c(F)c2)nnc1C1CCCCC1` the Potency was “inactive”. For `Cc1ccc(CNS(=O)(=O)c2ccc([N+](=O)[O-])cc2)cc1`, the Potency was inconclusive: 100 µM [inhibitor, partial curve, poor fit]. `O=c1c2c(n(Cc3cccnc3)n1-c1ccccc1)CN(CC1CCOCC1)CC2` was tested, and the Potency was inconclusive: 25.1 µM [inhibitor, full curve, poor fit]. In the case of `CC(NC(=O)c1cc(-c2cccs2)nc2ccccc12)C(C)(C)C` (stereo not drawn), the Potency is reported as “inactive”. With `Cc1ccc(C(CNS(=O)(=O)c2ccccc2)N2CCN(C)CC2)cc1` (stereo not drawn) the Potency was inconclusive: 50.1 µM [inhibitor, partial curve, poor fit]. For `CCCSc1nc2c(c(=O)[nH]1)C(C(=O)Nc1ccccc1F)CC(=O)N2` (stereo not drawn), the Potency was inconclusive: 15.8 µM [inhibitor, partial curve, poor fit]. In the case of `COC(=O)C1=C(C)N(CCc2ccc(OC)c(OC)c2)C(=O)/C1=C\c1ccc(O)cc1`, the Potency is reported as inconclusive: 126 µM [inhibitor, partial curve, poor fit]. `CCN(Cc1ccc(C(N)=O)cc1)C1CCCC1` was tested, and the Potency was “inactive”. For `CC(C)C[C@H]1CN([C@@H](CC(C)C)CN2CCCC2CN2C(=S)NC[C@@H]2Cc2ccc(O)cc2)C(=S)N1CCc1ccccc1` (stereo partly drawn), the Potency was inconclusive: 44.7 µM [inhibitor, partial curve, poor fit]. With `CCCc1nc2c(C)ccc(C)c2c(N)c1CC` the Potency was inconclusive: 0.562 µM [inhibitor, full curve, poor fit]. In the case of `CCn1cnc2c1c(=O)n(CC(=O)Nc1ccccc1N1CCCC1=O)c(=O)n2Cc1ccccc1`, the Potency is reported as inconclusive: 12.6 µM [inhibitor, partial curve, poor fit]. For `Cn1c(=O)n(C)c2cc(NS(=O)(=O)c3ccc(Br)s3)ccc21`, the Potency was inconclusive: 79.4 µM [inhibitor, partial curve, poor fit]. For `COc1ccc(F)c(CN2CCC3(CCC(CNC(=O)c4cc(C)nn4C)O3)CC2)c1` (stereo not drawn), the Potency was “inactive”. In the case of `COc1ccccc1CNC(=O)Cn1nnnc1CN(C)C(C)C`, the Potency is reported as “inactive”. With `Cn1cc(/C=C2/SC(=O)N(CC(=O)Nc3ccc4c(c3)OCO4)C2=O)c2ccccc21` the Potency was inconclusive: 89.1 µM [inhibitor, single point]. With `CC(=O)c1ccc(NC(=O)COC(=O)c2csc(NCc3ccccc3)n2)cc1` the Potency was inconclusive: 6.31 µM [inhibitor, partial curve, poor fit]. For `CCC(=O)N1CCN(c2ccc(OC)cc2[N+](=O)[O-])CC1`, the Potency was “inactive”. For `Cc1cc(C)n2nc(C(=O)Nc3nc(-c4cccc(Br)c4)cs3)nc2n1`, the Potency was inconclusive: 1.41 µM [inhibitor, partial curve, poor fit]. For `CC[C@]12c3[nH]c4ccccc4c3CCN1C(=O)C(CC(=O)NC/C=C(\C)CCC=C(C)C)C[C@@H]2C(=O)N1CCN(C(=O)c2ccco2)CC1` (stereo partly drawn), the Potency was inconclusive: 31.6 µM [inhibitor, single point]. `O=C(Nc1ccc(S(=O)(=O)N2CCCCC2)cc1)c1ccccc1Cl` was tested, and the Potency was “inactive”. In the case of `c1ccc(C2c3[nH]c4ccccc4c3CCN2Cc2cccn2-c2cccnc2)nc1` (stereo not drawn), the Potency is reported as inconclusive: 100 µM [inhibitor, partial curve, poor fit]. With `CCC1=NN2C(=N)/C(=C\c3cccn3-c3cccc(Cl)c3)C(=O)N=C2S1` the Potency was “inactive”. In the case of `CCN(CC)CCNC(=O)c1ccc(NC(=O)c2ccc(Cl)c(S(=O)(=O)N3CCCCCC3)c2)cc1`, the Potency is reported as inconclusive: 39.8 µM [inhibitor, partial curve, poor fit]. For `O=C(Cn1cc(COc2c(F)c(F)cc(F)c2F)nn1)c1ccc(O)cc1`, the Potency was inconclusive: 1.58 µM [inhibitor, full curve, poor fit]. In the case of `COc1ccccc1CNc1nc(NCc2cccs2)nc2ccsc12`, the Potency is reported as inconclusive: 50.1 µM [inhibitor, partial curve, poor fit]. In the case of `CCCCOc1ccc(C(=O)NCC(=O)N2CCN(C(=O)c3ccco3)CC2)cc1`, the Potency is reported as inconclusive: 31.6 µM [inhibitor, single point]. In the case of `O=[N+]([O-])c1nn(-c2ccc(Cl)cc2)n(O)c1=NCc1cccnc1`, the Potency is reported as inconclusive: 112 µM [inhibitor, partial curve, poor fit]. In the case of `Cc1ccc(Nc2cccc3ccccc23)cc1`, the Potency is reported as “inactive”. In the case of `COC(=O)C1CN(Cc2cn(Cc3ccc(C)cc3)nn2)CCS(=O)(=O)N1Cc1ccc(Cl)cc1` (stereo not drawn), the Potency is reported as inconclusive: 17.8 µM [inhibitor, full curve, poor fit]. `O=C(O)C=Cc1ccc(O)c(O)c1` was tested, and the Potency was inconclusive: 20 µM [inhibitor, partial curve, poor fit]. With `COC1CCOC2(CCN(C(=O)COc3ccc(C)cc3)CC2)C1` (stereo not drawn) the Potency was “inactive”. With `O=C(NCCNc1ccc([N+](=O)[O-])cc1)c1ccccc1F` the Potency was inconclusive: 79.4 µM [inhibitor, partial curve, poor fit]. For `O=C(NCc1ccccc1)c1cccn1-c1nnc(N2CCCC2)s1`, the Potency was “inactive”. With `CC(=O)N1c2ccccc2C(C)(c2ccc(C)cc2)CC1(C)C` (stereo not drawn) the activity change, negative = inhibition was inconclusive: -33.7% [inhibitor]. For `COc1ccc(Nc2nc(Cl)nc(Nc3cccc([N+](=O)[O-])c3)n2)cc1`, the Potency was inconclusive: 39.8 µM [inhibitor, partial curve, poor fit]. In the case of `CCOC(=O)c1cc(-c2csc(Nc3c(C)cc(C)cc3C)n2)on1`, the Potency is reported as active: 20 µM. In the case of `COc1cccc(Nc2ccc3c(n2)C(C)(C(=O)NCCc2ccccn2)CN(C)C3)c1` (stereo not drawn), the Potency is reported as “inactive”. `C[C@@H]1CN([C@@H](C)CO)C(=O)c2cc(NS(=O)(=O)c3ccc(F)cc3)ccc2O[C@@H](C)CCCCO[C@H]1CN(C)C(=O)NC1CCCCC1` was tested, and the Potency was inconclusive: 100 µM [inhibitor, single point]. With `O=C(CNC(=O)c1ccc2ccccc2c1)NC1CCCCC1` the Potency was inconclusive: 35.5 µM [inhibitor, single point].

From PubChem BioAssay AID1671190 (National Center for Advancing Translational Sciences (NCATS), 2021)
On the % scale 0 is the no-effect control and ±100 the full control effect; potency means the concentration at half of the fitted maximal effect.
